# Test results taken from PMC10571636.
# The chains behind the UniProt entries cited, without tags or fusion partners.
# UniProt Q91ZW3: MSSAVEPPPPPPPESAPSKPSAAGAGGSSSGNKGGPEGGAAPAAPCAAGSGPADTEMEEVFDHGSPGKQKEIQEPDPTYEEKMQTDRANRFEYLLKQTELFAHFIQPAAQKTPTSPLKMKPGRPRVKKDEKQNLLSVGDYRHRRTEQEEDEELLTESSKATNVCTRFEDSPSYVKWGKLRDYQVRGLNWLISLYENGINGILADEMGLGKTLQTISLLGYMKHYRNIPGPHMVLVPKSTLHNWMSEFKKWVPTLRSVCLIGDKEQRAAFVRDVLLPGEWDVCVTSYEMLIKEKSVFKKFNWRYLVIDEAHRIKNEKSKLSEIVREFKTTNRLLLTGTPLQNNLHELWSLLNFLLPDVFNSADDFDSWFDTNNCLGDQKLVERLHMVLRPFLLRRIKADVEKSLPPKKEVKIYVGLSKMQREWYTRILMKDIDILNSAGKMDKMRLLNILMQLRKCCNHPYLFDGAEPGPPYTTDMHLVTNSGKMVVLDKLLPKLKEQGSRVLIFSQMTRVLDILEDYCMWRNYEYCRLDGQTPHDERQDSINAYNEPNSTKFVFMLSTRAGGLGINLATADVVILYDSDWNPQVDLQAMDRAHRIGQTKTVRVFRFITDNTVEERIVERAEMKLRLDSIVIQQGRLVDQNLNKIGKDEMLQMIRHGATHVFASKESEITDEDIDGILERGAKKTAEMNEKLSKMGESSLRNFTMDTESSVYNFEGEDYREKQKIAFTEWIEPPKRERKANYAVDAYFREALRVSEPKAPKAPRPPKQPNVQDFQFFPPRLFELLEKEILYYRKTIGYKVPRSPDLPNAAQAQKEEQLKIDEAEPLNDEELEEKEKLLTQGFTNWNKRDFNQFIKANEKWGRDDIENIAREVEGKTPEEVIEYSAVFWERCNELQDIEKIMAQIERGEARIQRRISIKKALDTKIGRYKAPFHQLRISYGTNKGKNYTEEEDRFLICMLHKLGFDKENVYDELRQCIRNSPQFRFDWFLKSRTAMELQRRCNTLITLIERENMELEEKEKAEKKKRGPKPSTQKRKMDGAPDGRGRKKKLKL
# UniProt E9Q2Z1: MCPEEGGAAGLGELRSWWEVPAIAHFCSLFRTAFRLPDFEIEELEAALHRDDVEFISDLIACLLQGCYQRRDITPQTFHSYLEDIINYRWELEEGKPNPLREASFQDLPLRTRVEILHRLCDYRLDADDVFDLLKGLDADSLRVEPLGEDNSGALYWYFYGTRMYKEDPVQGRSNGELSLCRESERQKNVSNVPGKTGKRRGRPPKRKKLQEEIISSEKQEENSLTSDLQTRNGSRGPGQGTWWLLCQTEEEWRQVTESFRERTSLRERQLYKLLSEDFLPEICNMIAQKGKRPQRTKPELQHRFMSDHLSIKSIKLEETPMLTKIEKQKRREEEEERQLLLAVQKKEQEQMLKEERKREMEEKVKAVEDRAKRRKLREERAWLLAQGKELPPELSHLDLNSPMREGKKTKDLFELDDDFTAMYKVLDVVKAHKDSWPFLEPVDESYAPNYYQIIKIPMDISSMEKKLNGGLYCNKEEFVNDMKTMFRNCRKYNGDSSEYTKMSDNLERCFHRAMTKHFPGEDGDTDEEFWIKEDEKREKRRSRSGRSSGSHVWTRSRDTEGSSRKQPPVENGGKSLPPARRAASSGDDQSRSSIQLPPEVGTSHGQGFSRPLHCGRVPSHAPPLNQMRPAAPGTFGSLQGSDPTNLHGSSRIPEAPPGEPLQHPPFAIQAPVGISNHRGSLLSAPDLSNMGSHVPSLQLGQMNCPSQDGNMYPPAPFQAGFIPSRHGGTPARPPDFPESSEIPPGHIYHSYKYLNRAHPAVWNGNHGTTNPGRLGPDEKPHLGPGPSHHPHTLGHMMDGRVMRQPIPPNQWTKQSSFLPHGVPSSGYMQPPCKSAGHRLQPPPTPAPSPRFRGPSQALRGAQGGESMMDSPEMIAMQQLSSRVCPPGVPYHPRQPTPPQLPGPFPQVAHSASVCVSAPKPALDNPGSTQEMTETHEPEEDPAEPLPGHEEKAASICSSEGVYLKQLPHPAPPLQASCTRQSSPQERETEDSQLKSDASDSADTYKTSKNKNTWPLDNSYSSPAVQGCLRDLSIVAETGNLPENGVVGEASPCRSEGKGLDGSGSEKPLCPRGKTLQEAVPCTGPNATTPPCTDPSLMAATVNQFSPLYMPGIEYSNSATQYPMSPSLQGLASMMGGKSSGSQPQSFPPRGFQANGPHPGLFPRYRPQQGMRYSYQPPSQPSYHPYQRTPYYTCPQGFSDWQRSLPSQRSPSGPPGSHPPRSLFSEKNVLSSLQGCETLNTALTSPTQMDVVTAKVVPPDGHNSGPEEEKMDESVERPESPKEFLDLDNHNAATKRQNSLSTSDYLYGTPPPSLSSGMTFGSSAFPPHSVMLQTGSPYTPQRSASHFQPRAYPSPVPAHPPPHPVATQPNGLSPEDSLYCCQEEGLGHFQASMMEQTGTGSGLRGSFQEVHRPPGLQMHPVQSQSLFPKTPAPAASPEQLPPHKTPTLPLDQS
# No constants are given. Whether binding was seen depends on the method and setting. In cells and extracts the contact can be indirect. Some entries that bind do so weakly or less than the wild type.
# Columns and labels:
# [1] = target: Snf2h protein (encoded by Smarca5) (mouse (endogenous in cerebellum)) (UniProt Q91ZW3); assay: co-IP; Smarca1 cKO mouse cerebellar extracts (Snf2l protein absent); IP with Snf2h antibody (Abcam ab72499) or rabbit IgG, overnight at 4 °C, Protein A/G magnetic beads; lysis buffer 20 mM Tris-HCl pH 8, 137 mM NaCl, 1% NP-40, 2 mM EDTA; washes in PBS with 0.3% triton-X; immunoblot for Cecr2
# [2] = target: Snf2h protein (encoded by Smarca5) (mouse (endogenous in cerebellum)) (UniProt Q91ZW3); assay: condition: only in WT cerebellar extracts, where Snf2l protein is present; co-IP; WT mouse cerebellar extracts (Snf2l protein present); IP with Snf2h antibody (Abcam ab72499) or rabbit IgG, overnight at 4 °C, Protein A/G magnetic beads; lysis buffer 20 mM Tris-HCl pH 8, 137 mM NaCl, 1% NP-40, 2 mM EDTA; washes in PBS with 0.3% triton-X; immunoblot for Cecr2
substance,measurement,setting,value
Cecr2 protein (from UniProt E9Q2Z1 1-1453),binding,[1],binds
same,binding,[2],no binding
